Molecules are shown by their SMILES. Where a name gives a salt, the structure may show the parent alone. ± gives the standard deviation of the averaged measurements. Some of the results follow. Many values rest on one well or one pass, so single values are uncertain.

Data on 19 compounds can be found in the supplement of paper PMC3682954.

This assay deals with RAW 264.7. The experiment in a line: cell viability (MTT) relative to vehicle control; higher = more viable cells. The settings on record: stimulus: HMGB1 5 ug/ml, 18 h.

As to `CC(C)NCC(O)c1ccc2ccccc2c1` (centres undefined), the cell viability (compound concentration: 3 uM) worked out at 106%. On the same count and under the same terms, as for `CC(C)NCC(O)c1ccc2ccccc2c1` (centres undefined) [Pronethalol], the figure is 104%; as for `CC(C)NCC(O)c1ccc2ccccc2c1` (centres undefined) [Pronethalol hydrochloride], 81.6%. Take `C[C@H]1C[C@@H]2[C@H]([C@@H](O)C[C@@]3(C)[C@H]2CC[C@]3(O)C(=O)CO)[C@@]2(C)C=CC(=O)C=C12` [Methylprednisolone, 6-alpha]: where the note is “compound concentration: 3 uM”, the cell viability came out at 110%.

`C[C@H]1C[C@@H]2[C@H]([C@@H](O)C[C@@]3(C)[C@H]2CC[C@]3(O)C(=O)CO)[C@@]2(C)C=CC(=O)C=C12` [Methylprednisolone]: where the note is “compound concentration: 3 uM”, the cell viability turned out to be 94.9%. Turning to `C[C@H]1C[C@@H]2[C@H]([C@@H](O)C[C@@]3(C)[C@H]2CC[C@]3(O)C(=O)CO)[C@@]2(C)C=CC(=O)C=C12`, the cell viability (compound concentration: 3 uM) worked out at 113%. Turning to `COc1cc([C@@H]2c3cc4c(cc3[C@@H](O[C@@H]3O[C@@H]5CO[C@@H](C)O[C@H]5[C@H](O)[C@H]3O)[C@H]3COC(=O)[C@H]23)OCO4)cc(OC)c1O` [Etoposide; VP-16-213], the cell viability (compound concentration: 1 ug/ml) amounted to 99.4%. In the case of `COc1cc([C@@H]2c3cc4c(cc3[C@@H](O[C@@H]3O[C@@H]5CO[C@@H](C)O[C@H]5[C@H](O)[C@H]3O)[C@H]3COC(=O)[C@H]23)OCO4)cc(OC)c1O`, under “compound concentration: 3 uM”, the cell viability was determined as 94.9 ± 3.1%. Same read-out and setting: as for `COc1cc([C@@H]2c3cc4c(cc3[C@@H](O[C@@H]3O[C@@H]5CO[C@@H](C)O[C@H]5[C@H](O)[C@H]3O)[C@H]3COC(=O)[C@H]23)OCO4)cc(OC)c1O` [Etoposide], the figure is 100 ± 9.2%. The same measure, in the same setting: as for `COc1ccccc1OCC(O)CN1CCN(CC(=O)Nc2c(C)cccc2C)CC1` (centres undefined) [Ranolazine dihydrochloride], the figure is 107 ± 18%. As to `COc1ccccc1OCC(O)CN1CCN(CC(=O)Nc2c(C)cccc2C)CC1` (centres undefined), for the setting “compound concentration: 3 uM”, the cell viability was 110%.

`COc1ccccc1OCC(O)CN1CCN(CC(=O)Nc2c(C)cccc2C)CC1` (centres undefined) [Ranolazine]: the cell viability (compound concentration: 3 uM) turned out to be 104 ± 2%.

Turning to `O=[N+]([O-])c1cccc2cn[nH]c12`, for the setting “compound concentration: 3 uM”, the cell viability is 117 ± 25%. In the case of `O=[N+]([O-])c1cccc2cn[nH]c12` [7-Nitroindazole], for the setting “compound concentration: 3 uM”, the cell viability was 107%.

`COc1cc(/C=C(\C#N)C(=O)Nc2nnc(C(F)(F)F)s2)ccc1OCc1ccc(C(F)(F)F)cc1C(F)(F)F`: under “compound concentration: 3 uM”, the cell viability is 121%. Take `CCCCCCCCCCCCCCCCCC(=O)OC(CC(=O)O)C[N+](C)(C)C` (racemic) [DL-Stearoylcarnitine chloride]: the cell viability (compound concentration: 3 uM) was 136%. With `CCCNCC(O)COc1ccccc1C(=O)CCc1ccccc1` (centres undefined), the cell viability (compound concentration: 3 uM) came to 113%.

As for `CCCNCC(O)COc1ccccc1C(=O)CCc1ccccc1` (centres undefined) [Propafenone hydrochloride], under “compound concentration: 3 uM”, the cell viability is 97.5 ± 2.2%. As to `CCCNCC(O)COc1ccccc1C(=O)CCc1ccccc1` (centres undefined) [Propafenone], where the note is “compound concentration: 3 uM”, the cell viability amounted to 109%.
